Assay results as given in doi:10.1101/402123 (bioRxiv, 2018).
Changes are numbered by the printed parent chain. Results are given in words; binding and its absence hold for the method and conditions named. Some results given as binding are weak or reduced against the parent protein; the word gives no strength. No end group written: not given here. fluorescein = N-terminal fluorescein label

How the values were obtained:
[1] = biological target: T1, BP230 10-162 S49D (human) (UniProt Q03001); experiment: fluorescence polarisation
T1 sequence (chain, Oregon Green 488 on thiol groups): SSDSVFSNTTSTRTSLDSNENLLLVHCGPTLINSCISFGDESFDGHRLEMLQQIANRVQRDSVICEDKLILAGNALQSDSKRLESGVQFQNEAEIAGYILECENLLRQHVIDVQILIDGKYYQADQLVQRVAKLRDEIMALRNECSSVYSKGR

BP230 19-162 (human) = biological target: T2, BP230 19-162 (human) (UniProt Q03001); experiment: fluorescence polarisation
T2 sequence (chain, Oregon Green 488 on thiol groups): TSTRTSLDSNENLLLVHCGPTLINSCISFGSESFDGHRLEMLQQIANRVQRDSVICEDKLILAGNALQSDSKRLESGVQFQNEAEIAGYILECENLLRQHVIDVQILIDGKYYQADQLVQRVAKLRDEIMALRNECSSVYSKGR

BP230 10-162 (human) [2] = biological target: T3, BP230 10-162 (human) (UniProt Q03001); experiment: fluorescence polarisation
T3 sequence (chain, Oregon Green 488 on thiol groups (fluorescence anisotropy assay)): T1 sequence (chain, Oregon Green 488 on thiol groups) with D40S

BP230 10-162 (human) [3] = biological target: T3, BP230 10-162 (human); experiment: SEC
[4] = biological target: T4, BP230 SR2 (56-162) (human) (UniProt Q03001); experiment: SEC
T4 sequence (chain, Oregon Green 488 on thiol groups (fluorescence anisotropy assay)): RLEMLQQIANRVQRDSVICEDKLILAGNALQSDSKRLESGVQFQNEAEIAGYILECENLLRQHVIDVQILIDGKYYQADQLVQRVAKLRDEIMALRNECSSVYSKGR

[5] = biological target: T5, fluorescein-labeled BP230 peptide 26-55 (human, UniProt Q03001-8 26-55, N-terminal fluorescein); experiment: fluorescence polarisation
T5 peptide (looked up): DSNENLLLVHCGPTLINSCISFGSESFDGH

binding [1]: binds weakly
binding (BP230 19-162 (human)): binds weakly
binding (BP230 10-162 (human) [2]): binds weakly
binding (BP230 10-162 (human) [3]): binds weakly
binding [4]: no binding
binding [5]: binds weakly
B1: integrin β4 1436-1666 (β4-CS-FnIII-3,4) (domain or fragment, human, UniProt P16144-2 1436-1666, looked up)
chain: LPRDYSTLTSVSSHDSRLTAGVPDTPTRLVFSALGPTSLRVSWQEPRCERPLQGYSVEYQLLNGGELHRLNIPNPAQTSVVVEDLLPNHSYVFRVRAQSQEGWGREREGVITIESQVHPQSPLCPLPGSAFTLSTPSAPGPLVFTALSPDSLQLSWERPRRPNGDIVGYLVTCEMAQGGGPATAFRVDGDSPESRLTVPGLSENVPYKFKVQARTTEGFGPEREGIITIES
